# Laboratory results from ChEMBL document CHEMBL6182906, “Discovery, total synthesis, and biological evaluation of tyrcinnamins as antibacterial agents and tyrosinase activators” (Eur J Med Chem, 2025).
# Tested on: Staphylococcus epidermidis
# Assay: Antibacterial activity against Staphylococcus epidermidis assessed as bacterial growth inhibition incubated for 16 hrs by broth microdilution assay
# Assay type: functional
structure (smiles),measurement,value
CN[C@H](CC(C)C)C(=O)N[C@H]1C(=O)N[C@@H](CC(N)=O)C(=O)N[C@H]2C(=O)N[C@H]3C(=O)N[C@H](C(=O)N[C@H](C(=O)O)c4cc(O)cc(O)c4-c4cc3ccc4O)[C@H](O)c3ccc(c(Cl)c3)Oc3cc2cc(c3O[C@@H]2O[C@H](CO)[C@@H](O)[C@H](O)[C@H]2O[C@H]2C[C@](C)(N)[C@H](O)[C@H](C)O2)Oc2ccc(cc2Cl)[C@H]1O [VANCOMYCIN],MIC,2.8 µM
